Reference: the supplement of paper PMC10470496
Structures can show the parent of a compound that is named as a salt. This is one part of the list. Repeats are few or missing, and single values can be far off.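 Three clinical Candida auris isolates (clades III, IV and I) from the CDC resistance isolate bank were grown in RPMI-1640 at 35°C. Growth was background-corrected OD600 relative to same-plate vehicle-only wells. Hits required over 50% inhibition in at least two strains and a plate-corrected B-score above 0.1.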

What was measured:
Test in all cases: growth relative to vehicle control (OD600 ratio) (fraction); higher = less inhibition
Conditions in all cases: 24 h
[1] = system: C. auris AR-384
[2] = system: C. auris AR-386
[3] = system: C. auris AR-387

Row | Compound | growth ([1]; 1 µM) | growth ([1]; 10 µM) | growth ([2]; 1 µM) | growth ([2]; 10 µM) | growth ([3]; 1 µM) | growth ([3]; 10 µM)
1 | CCC(NC(C)C)C(O)c1ccc(O)c(O)c1 (stereo not drawn) [Isoetharine Mesylate] | 0.86 | 0.81 | 0.86 | 0.8 | 0.76 | 0.75
2 | C=CCc1cc(OC)c(O)c(C(=O)NCCO)c1 [Alibendol] | 0.78 | 0.84 | 0.86 | 1.19 | 1.1 | 0.93
3 | C#C[C@]1(O)CC[C@H]2[C@@H]3CCc4cc(O)ccc4[C@H]3CC[C@@]21C [Ethinyl Estradiol] | 0.75 | 1.07 | 1.11 | 0.78 | 0.72 | 0.94
4 | CC(=O)CCCCn1c(=O)c2c(ncn2C)n(C)c1=O [Pentoxifylline] | 0.74 | 0.78 | 0.93 | 0.75 | 0.74 | 0.47
5 | CN(C)C(=O)C(CCN1CCC(O)(c2ccc(Cl)cc2)CC1)(c1ccccc1)c1ccccc1 [Loperamide HCl] | 1.35 | 1.3 | 1.18 | 0.92 | 0.92 | 1.02
6 | Nc1ncnc2c1ncn2[C@@H]1O[C@H](CO)[C@@H](O)[C@H]1O [Adenosine] | 0.7 | 0.64 | 0.69 | 0.8 | 0.78 | 0.99
7 | C[C@H](Oc1ccc(S(C)(=O)=O)cc1C(=O)N1CCN(c2ncc(C(F)(F)F)cc2F)CC1)C(F)(F)F [Bitopertin] | 1.38 | 1.54 | 1.18 | 1.32 | 1.57 | 1.41
8 | CCC(C)(C)C(=O)O[C@H]1C[C@@H](C)C=C2C=C[C@H](C)[C@H](CC[C@@H]3C[C@@H](O)CC(=O)O3)[C@H]21 [Simvastatin] | 0.81 | 0.92 | 0.7 | 0.91 | 0.63 | 0.76
9 | CC(C)(Oc1ccc(Cl)cc1)C(=O)O [Clofibric Acid] | 1.12 | 0.93 | 1.1 | 0.85 | 0.87 | 0.87
10 | CCN(CC)CCCC(C)Nc1ccnc2cc(Cl)ccc12 (stereo not drawn) [Chloroquine Phosphate] | 1.04 | 1 | 0.75 | 0.88 | 0.89 | 0.92
11 | O=C(NCCO[N+](=O)[O-])c1cccnc1 [Nicorandil] | 0.75 | 0.69 | 0.56 | 0.93 | 0.81 | 0.59
12 | O=C(NC1CCN(CCCCC2(C(=O)NCC(F)(F)F)c3ccccc3-c3ccccc32)CC1)c1ccccc1-c1ccc(C(F)(F)F)cc1 [Lomitapide Mesylate] | 1.2 | 1.54 | 1.02 | 1.03 | 0.91 | 1.52
13 | FC(F)(F)c1ccc(/C=C/c2nc(COc3ccc(CCCCn4ccnn4)cc3)co2)cc1 [Mubritinib (TAK 165)] | 0.63 | 0.6 | 0.74 | 0.81 | 0.7 | 0.65
14 | C[C@]12CCC3=C4CCC(=O)C=C4CC[C@H]3[C@@H]1CC[C@@]2(O)CC#N [Dienogest] | 0.86 | 0.61 | 0.92 | 1.26 | 0.92 | 1.02
15 | CC1=C(C(=O)O)N2C(=O)[C@@H](NC(=O)[C@H](N)c3ccc(O)cc3)[C@H]2SC1 [Cefadroxil hydrate] | 0.96 | 0.91 | 0.86 | 0.92 | 0.72 | 0.92
16 | Cc1cc(Nc2cc(CN3CCOCC3)c3nc(C)c(Cc4ccc(Cl)cc4F)n3n2)n[nH]1 | 0.94 | 0.87 | 0.85 | 0.96 | 0.97 | 0.8
17 | CC1(C)S[C@@H]2[C@H](NC(=O)[C@H](N)c3ccccc3)C(=O)N2[C@H]1C(=O)O [Ampicillin sodium] | 1.19 | 1.26 | 1.27 | 1.02 | 1.03 | 0.76
18 | Nc1nc2c(ncn2COCCO)c(=O)[nH]1 [Aciclovir] | 0.72 | 0.59 | 0.66 | 0.82 | 0.71 | 0.73
19 | CC(=O)Oc1ccccc1C(=O)O.CC(=O)Oc1ccccc1C(=O)O.NC(N)=O [Carbasalate Calcium] | 0.93 | 0.72 | 0.93 | 0.85 | 1.07 | 0.86
20 | C[C@@H](O)[C@H]1C(=O)N2C(C(=O)[O-])=C(SC3Cn4cnc[n+]4C3)[C@H](C)[C@H]12 (stereo partly drawn) [Biapenem] | 0.86 | 1.04 | 0.97 | 1.28 | 1.06 | 1.08
21 | C[C@H](CCC(=O)O)[C@H]1CC[C@H]2[C@@H]3[C@H](O)C[C@@H]4C[C@H](O)CC[C@]4(C)[C@H]3C[C@H](O)[C@]12C [Cholic acid] | 0.81 | 0.89 | 1.13 | 1 | 0.87 | 0.8
22 | NC(=O)Cc1cccc(C(=O)c2ccccc2)c1N [Nepafenac] | 0.73 | 0.62 | 0.78 | 1.06 | 1.09 | 0.85
23 | Cc1cn([C@H]2C=C[C@@H](CO)O2)c(=O)[nH]c1=O [Stavudine (d4T)] | 1.62 | 0.87 | 0.91 | 1.35 | 1.18 | 1.23
24 | CC1(C)[C@H](C(=O)O)N2C(=O)C[C@H]2S1(=O)=O [Sulbactam sodium] | 0.84 | 1.02 | 1 | 0.92 | 1.12 | 1.08

Two entries from above in another layout.
Row	Compound	growth ([1]; 1 µM)	growth ([1]; 10 µM)	growth ([2]; 1 µM)	growth ([2]; 10 µM)	growth ([3]; 1 µM)	growth ([3]; 10 µM)
15	CC1=C(C(=O)O)N2C(=O)[C@@H](NC(=O)[C@H](N)c3ccc(O)cc3)[C@H]2SC1 [Cefadroxil hydrate]	0.96	0.91	0.86	0.92	0.72	0.92
16	Cc1cc(Nc2cc(CN3CCOCC3)c3nc(C)c(Cc4ccc(Cl)cc4F)n3n2)n[nH]1	0.94	0.87	0.85	0.96	0.97	0.8

Following part:

Row | Compound | growth ([1]; 1 µM) | growth ([1]; 10 µM) | growth ([2]; 1 µM) | growth ([2]; 10 µM) | growth ([3]; 1 µM) | growth ([3]; 10 µM)
25 | CCCCC(CC)COC(=O)CC(C(=O)OCC(CC)CCCC)S(=O)(=O)O (stereo not drawn) [Docusate Sodium] | 1.13 | 2.2 | 0.94 | 0.97 | 0.57 | 1.22
26 | CC[C@H](CO)Nc1nc(NCc2ccccc2)c2ncn(C(C)C)c2n1 [Roscovitine (Seliciclib,CYC202)] | 1.03 | 0.98 | 0.93 | 0.53 | 0.74 | 0.73
27 | C#Cc1cccc(Nc2ncnc3cc(OCCOC)c(OCCOC)cc23)c1 [Erlotinib HCl (OSI-744)] | 0.73 | 0.55 | 0.73 | 0.65 | 0.8 | 0.82
28 | CCN(CC)CCOc1ccc(C(=C(Cl)c2ccccc2)c2ccccc2)cc1 [Clomifene citrate] | 0.97 | 0.85 | 0.98 | 0.69 | 0.65 | 0.98
29 | C[C@H]1[C@@H](O)O[C@@H]2O[C@@]3(C)CC[C@H]4[C@H](C)CC[C@@H]1[C@@]24OO3 [Dihydroartemisinin (DHA)] | 0.75 | 0.59 | 0.93 | 1.06 | 0.63 | 0.84
30 | CC(C(=O)O)c1ccc2c(c1)[nH]c1ccc(Cl)cc12 (stereo not drawn) [Carprofen] | 0.75 | 0.74 | 0.78 | 0.8 | 0.75 | 0.69
31 | CCN(CC)CCOCCOC(=O)C(CC)(CC)c1ccccc1 [Oxeladin Citrate] | 0.98 | 0.91 | 0.97 | 0.92 | 0.94 | 1.02
32 | NCCC[C@H](N)C(=O)O [L-Ornithine] | 0.88 | 1.2 | 0.91 | 1.02 | 0.78 | 1.04
33 | CCC1(C)CC(=O)NC1=O (stereo not drawn) [Ethosuximide] | 0.92 | 0.86 | 0.99 | 0.9 | 1.02 | 0.91
34 | C#CCN[C@@H]1CCc2ccccc21 [Rasagiline Mesylate] | 0.69 | 0.78 | 0.61 | 1.05 | 1.06 | 0.96
35 | Cc1cnc(C(=O)NCCc2ccc(S(=O)(=O)NC(=O)NC3CCCCC3)cc2)cn1 [Glipizide] | 1.56 | 0.82 | 1.19 | 0.68 | 0.88 | 0.64
36 | CN(C)CCN1C(=O)c2cccc3cc(N)cc(c23)C1=O [Amonafide] | 0.97 | 1.4 | 1.44 | 1.03 | 1.17 | 0.99
37 | Cn1c([N+](=O)[O-])cnc1COC(N)=O [Ronidazole] | 1.1 | 0.98 | 1.15 | 0.98 | 1.14 | 1.13
38 | CC(C)(C#N)c1cc(Cn2cncn2)cc(C(C)(C)C#N)c1 [Anastrozole] | 1.37 | 0.91 | 0.81 | 1.14 | 1.13 | 0.99
39 | C#C[C@]1(O)CC[C@H]2[C@@H]3CCC4=CC(=O)CC[C@@H]4[C@H]3CC[C@@]21CC [Levonorgestrel] | 1.42 | 1.16 | 1.11 | 0.94 | 0.88 | 0.73
40 | C[C@]12CCC(=O)C=C1[C@@H]1C[C@@H]1[C@H]1[C@@H]3[C@@H]4C[C@@H]4[C@@]4(CCC(=O)O4)[C@@]3(C)CC[C@@H]12 [Drospirenone] | 1.11 | 0.82 | 1.12 | 1.3 | 1.33 | 0.98
41 | C[C@]1(c2nc3c(C(N)=O)cccc3[nH]2)CCCN1 [Veliparib (ABT-888)] | 0.83 | 0.61 | 0.52 | 0.82 | 0.73 | 0.61
42 | CCCCOc1ccc(C(=O)CCN2CCCCC2)cc1 [Dyclonine HCl] | 0.86 | 0.75 | 1.04 | 0.54 | 0.6 | 0.64
43 | Oc1c(Cl)cc(Cl)cc1Sc1cc(Cl)cc(Cl)c1O [Bithionol] | 0.65 | 0.49 | 0.8 | 0.48 | 0.68 | 0.45
44 | Nc1ccn([C@@H]2O[C@H](CO)[C@@H](O)C2(F)F)c(=O)n1 [Gemcitabine HCl] | 0.6 | 0.91 | 0.89 | 1.12 | 0.88 | 0.79
45 | CN1CCC(=C2c3ccccc3CCc3sccc32)CC1 [Pizotifen Malate] | 0.77 | 1.11 | 1.03 | 0.84 | 1.13 | 1.2
46 | CC(=O)OCC[N+](C)(C)C [Acetylcholine iodide] | 0.73 | 0.73 | 0.63 | 0.97 | 0.7 | 1.13
47 | CO[C@@H]1[C@H](N(C)C(=O)c2ccccc2)C[C@H]2O[C@]1(C)n1c3ccccc3c3c4c(c5c6ccccc6n2c5c31)C(=O)NC4 [Midostaurin (PKC412)] | 0.97 | 0.7 | 0.6 | 0.75 | 0.85 | 0.84
48 | CCCCCCCCCCC[C@@H](C[C@@H]1OC(=O)[C@H]1CCCCCC)OC(=O)[C@H](CC(C)C)NC=O [Orlistat] | 0.96 | 0.54 | 0.62 | 1 | 0.92 | 0.72
